The target in this experiment is Dendra2-ZO1-APEX2 (UniProt Q07157). In words: proximity labelling.

Chains of the proteins cited; added tags and fusions are not shown.
UniProt Q07157: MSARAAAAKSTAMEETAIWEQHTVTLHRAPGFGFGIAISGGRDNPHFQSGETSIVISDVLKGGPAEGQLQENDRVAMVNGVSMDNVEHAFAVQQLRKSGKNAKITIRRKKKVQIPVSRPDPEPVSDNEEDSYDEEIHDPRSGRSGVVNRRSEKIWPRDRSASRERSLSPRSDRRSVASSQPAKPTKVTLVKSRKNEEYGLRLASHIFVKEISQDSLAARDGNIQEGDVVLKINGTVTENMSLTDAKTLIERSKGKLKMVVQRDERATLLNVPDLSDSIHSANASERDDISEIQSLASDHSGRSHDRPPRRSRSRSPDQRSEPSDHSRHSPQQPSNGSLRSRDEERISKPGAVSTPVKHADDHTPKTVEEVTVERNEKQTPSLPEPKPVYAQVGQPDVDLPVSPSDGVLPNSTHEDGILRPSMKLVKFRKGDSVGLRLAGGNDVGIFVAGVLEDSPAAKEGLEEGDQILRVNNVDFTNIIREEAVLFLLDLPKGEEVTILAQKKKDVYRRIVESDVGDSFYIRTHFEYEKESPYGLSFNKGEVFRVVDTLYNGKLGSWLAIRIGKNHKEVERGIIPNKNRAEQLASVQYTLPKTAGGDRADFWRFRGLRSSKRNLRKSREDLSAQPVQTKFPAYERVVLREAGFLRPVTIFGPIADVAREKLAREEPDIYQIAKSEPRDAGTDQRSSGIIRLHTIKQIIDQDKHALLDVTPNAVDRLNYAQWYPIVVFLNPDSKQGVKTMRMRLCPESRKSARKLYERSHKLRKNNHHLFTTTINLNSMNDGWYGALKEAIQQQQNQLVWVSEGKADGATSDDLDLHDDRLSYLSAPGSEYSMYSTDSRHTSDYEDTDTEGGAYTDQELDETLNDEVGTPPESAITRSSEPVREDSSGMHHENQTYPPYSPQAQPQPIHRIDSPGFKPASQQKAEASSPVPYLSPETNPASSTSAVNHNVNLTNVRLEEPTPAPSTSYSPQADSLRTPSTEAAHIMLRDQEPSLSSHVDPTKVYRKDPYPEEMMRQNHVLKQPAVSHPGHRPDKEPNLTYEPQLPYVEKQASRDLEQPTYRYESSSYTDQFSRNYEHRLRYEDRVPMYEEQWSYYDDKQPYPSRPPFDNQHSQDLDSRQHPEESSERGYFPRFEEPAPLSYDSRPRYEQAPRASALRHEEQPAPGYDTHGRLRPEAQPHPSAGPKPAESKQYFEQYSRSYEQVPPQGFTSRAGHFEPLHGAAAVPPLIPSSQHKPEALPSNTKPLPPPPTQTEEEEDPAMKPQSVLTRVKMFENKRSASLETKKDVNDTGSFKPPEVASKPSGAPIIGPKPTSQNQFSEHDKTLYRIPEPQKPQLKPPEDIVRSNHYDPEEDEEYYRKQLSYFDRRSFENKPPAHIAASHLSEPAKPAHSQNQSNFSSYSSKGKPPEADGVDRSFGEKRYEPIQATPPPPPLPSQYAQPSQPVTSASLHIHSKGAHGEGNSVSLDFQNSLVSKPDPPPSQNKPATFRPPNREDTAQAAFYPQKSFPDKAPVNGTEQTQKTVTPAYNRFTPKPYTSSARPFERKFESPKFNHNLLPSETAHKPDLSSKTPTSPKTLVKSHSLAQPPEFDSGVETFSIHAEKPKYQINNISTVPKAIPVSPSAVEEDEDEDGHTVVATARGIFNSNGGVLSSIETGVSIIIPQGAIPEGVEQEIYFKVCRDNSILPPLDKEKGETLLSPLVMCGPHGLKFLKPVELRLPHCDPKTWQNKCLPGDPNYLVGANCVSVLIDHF
UniProt E2QYC9: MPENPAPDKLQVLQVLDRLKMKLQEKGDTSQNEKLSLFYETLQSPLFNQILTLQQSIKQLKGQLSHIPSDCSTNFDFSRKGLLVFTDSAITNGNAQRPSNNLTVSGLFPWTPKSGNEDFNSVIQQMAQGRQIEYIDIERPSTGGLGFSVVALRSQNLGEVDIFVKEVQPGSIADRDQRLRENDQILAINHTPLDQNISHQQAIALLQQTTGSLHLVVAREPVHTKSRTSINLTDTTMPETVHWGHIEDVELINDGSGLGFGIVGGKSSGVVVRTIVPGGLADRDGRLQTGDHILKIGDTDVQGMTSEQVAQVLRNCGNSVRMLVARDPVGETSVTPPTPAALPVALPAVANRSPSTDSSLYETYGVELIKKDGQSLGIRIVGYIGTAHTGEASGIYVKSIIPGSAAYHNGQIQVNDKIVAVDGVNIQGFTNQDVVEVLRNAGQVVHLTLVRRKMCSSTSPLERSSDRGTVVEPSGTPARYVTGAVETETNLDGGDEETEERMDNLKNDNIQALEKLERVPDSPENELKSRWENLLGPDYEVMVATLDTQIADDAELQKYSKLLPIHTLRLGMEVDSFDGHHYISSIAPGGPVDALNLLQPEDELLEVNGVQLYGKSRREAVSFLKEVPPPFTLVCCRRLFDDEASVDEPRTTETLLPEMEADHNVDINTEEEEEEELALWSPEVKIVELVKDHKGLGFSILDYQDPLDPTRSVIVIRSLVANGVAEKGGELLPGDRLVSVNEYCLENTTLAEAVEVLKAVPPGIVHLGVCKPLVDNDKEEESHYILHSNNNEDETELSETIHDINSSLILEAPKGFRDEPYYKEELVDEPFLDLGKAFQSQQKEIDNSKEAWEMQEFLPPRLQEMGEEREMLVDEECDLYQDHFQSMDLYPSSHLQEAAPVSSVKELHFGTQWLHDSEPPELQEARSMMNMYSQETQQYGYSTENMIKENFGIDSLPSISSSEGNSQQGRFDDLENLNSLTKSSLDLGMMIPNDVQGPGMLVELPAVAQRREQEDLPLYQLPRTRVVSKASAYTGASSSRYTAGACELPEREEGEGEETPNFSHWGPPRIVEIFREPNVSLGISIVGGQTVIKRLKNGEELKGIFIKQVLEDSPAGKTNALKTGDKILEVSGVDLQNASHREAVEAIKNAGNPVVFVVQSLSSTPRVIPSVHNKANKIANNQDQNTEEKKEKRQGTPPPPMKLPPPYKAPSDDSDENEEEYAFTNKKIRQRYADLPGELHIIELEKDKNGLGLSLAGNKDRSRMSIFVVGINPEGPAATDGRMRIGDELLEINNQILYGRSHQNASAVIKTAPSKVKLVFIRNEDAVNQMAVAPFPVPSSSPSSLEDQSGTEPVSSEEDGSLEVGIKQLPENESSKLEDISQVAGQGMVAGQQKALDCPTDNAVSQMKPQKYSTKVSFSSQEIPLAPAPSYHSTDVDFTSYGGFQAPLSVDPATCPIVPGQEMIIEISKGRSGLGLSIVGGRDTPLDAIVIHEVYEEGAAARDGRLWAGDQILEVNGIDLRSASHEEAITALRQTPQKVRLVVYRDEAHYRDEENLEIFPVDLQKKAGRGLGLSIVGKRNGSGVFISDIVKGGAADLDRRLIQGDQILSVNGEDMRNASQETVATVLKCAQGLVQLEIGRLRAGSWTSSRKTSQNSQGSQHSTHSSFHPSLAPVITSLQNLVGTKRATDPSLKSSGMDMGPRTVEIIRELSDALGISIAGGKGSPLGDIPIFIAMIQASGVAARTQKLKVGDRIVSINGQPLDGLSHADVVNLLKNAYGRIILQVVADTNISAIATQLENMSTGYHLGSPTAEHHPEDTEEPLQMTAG

Results are given in words; binding and its absence hold for the method and conditions named. In cells and extracts the contact can be indirect. A yes stands for co-enrichment or nearness to the bait. Other partners may have been found.

PATJ (from UniProt E2QYC9 1-1828): the binding result is “binds”.

B1: CGN (protein, UniProt A7YH32 1-1196)
chain: MEQASTMAEPRGPVDHGVQIRFITEPVGNAEMDTLRRGGRRPAKDARANTYGVAVRVQGIAGQPFVVLNSGEQGSDSFGVQIKGTNNRGPPGALSSDSELPESTYSHAKEFPARSQGSMSDEELGAHWNGRLLRSQSQASLKGPAPVSPSTRSTSLLQLAPEVASPGSTIDTAPLSSVDSLINKFDSRQGGQARGRTGRRMRTLPPEQRKRSQSLDNRLPRDTLDEREHQFPTHWTPSTKRDSHMGNSKQSSQNQGPLGGFSCSRQTQDWVLQSFEEPRGRAWDPGMLQFKSTPDLLRDQQETAPPGSVDHVKATIYSILREGSSETETSVRRKVNLVLEQMQPLVMTSGSAKGLTGQSELSQKVEELQQKLDEEVKKRPKLESSRLGLERQLQEKAEECSQLQELLERRKGEAQQSTKELQNMKLLVDQSERVRCGLEAQVKELQDKLKQAQEPEPAKEALMKDLLEARELLEEVLEGKQRMEEHLRLRERELTALKGALKEEVASRDQEVEHVRQQCQRDAEQLRRSIQDATQDHAALEVERQKMSTLVRELQKELEETSEETGHWQSMFQKNKDELRATKQELLQLRMEKEEIEEELGEKIEVLQRELGQARAGAADTRQMEELKKELCQTQKELKELKEEQQNQEVAGRHRERELEKQLKVEADRGQGLEQQNLQLQKTLQQLRQDCEEASKAQVAAEAEVAVLGQRRAAVEVTLRETQEENDEFRRRILGLEQQLKEARGLAEGGEVAEARLRDKVQRLEAEKQRLEEALNAAQEEEGSLAAAKRALEARLEEAQRGLARLGQEQLALNRALEEEGKQREALRRSKAELEEQKRLLDKTVCQLNKELEQIGNDSKQALQQLQAQLEDYKEKARREVADAQRQAKEWATEAEKNSGGLSRLQDETQRLRQALQASQADRDTARLDKELLAQRLQGLEQEAENKKRSQDDRARQLKGLEEKVSRLEAELDEERSTVELLTERVTRGRDQVDQLRSELMQERSARQDLECDKISLERQNKDLKSRLASSEGFQKPSASLSQLESQNQELQERLQAEEREKTVLQSTNRKLERRVKELSIQIDDERQHVNDQKDQLSLRVKALKRQVDEAEEEIERLDGLRKKAQRELEEQHEVNEQLQARIKTLEKDSWRKASRSAAESAQREGLSSDEEFDSVYDPSSIASLLTESNLQTSSC
In the case of B1, the binding entry is given as “binds”.

B2: claudin-4 (protein, UniProt A0A8C0N7E5 1-210)
chain: MASMGLQVMGIALAVLGWLGAILSCALPMWRVTAFIGSNIVTSQTIWEGLWMNCVVQSTGQMQCKVYDSLLALPQDLQAARALMVVSIILAALGVLLSVVGGKCTNCVEDESAKAKTMIVAGVVFLLAGLLVMVPASWTANNIIRDFYNPLVVSGQKREMGASLYVGWAASGLLLLGGALLCCNCPPRADKPYSAKYSAAARSAPASNYV
For the molecule B2, the binding entry is reported as “binds”.

B3: occludin (protein, UniProt Q28269 1-521)
chain: MSSRPFESPPPYRPDEFKPNHYAPSNDVYGGDMHVRPMLSQPAYSFYPEDEILHFYKWTSPPGVIRILSMLVIVMCIAIFGCVASTLAWDRGYGTGLMGGSIGYPYGSGFGSYGTGYGYGFGYGYGYGGYTDPRAAKGFLLAMVAFCFIAALVIFVTSVIRSDISRTRRYYLTVIILSAFLGVMMFIATIVYIMGVNPTAQASGSLYSSQIYAMCNQFYASTATGLYMDQYLYHYCVVDPQEAIAIVLGFMVIVAFALIIFFAVKTRRKMDRYDKSNILWDKEHIYDEQPPNVEEWVKNVSAGTQDMPPPPSDYVERVDSPMAYSSNGKVNDKRLYPESSYKSTPVPEVVQELPATSPADDFRQPRYSSSGHLEPPSKRAPSKGRTGRPKRLEQDHYETDYTTGGESCDELEEDWIREYPPITSDQQRQLYKRNFDTGLQEYKSLQAELDEINKELSRLDKELDDYREESEEYMAAADEYNRLKQVKGSPDYKNKRNYCKQLKSKLSHIKKMVGDYDRQKT
As for B3, the binding result is “binds”.

B4: ZO2 (protein, UniProt Q95168 1-1174)
chain: MEELIWEQYTVTLQKDSKRGFGIAVSGGRDNPHFENGETSIVISDVLPGGPADGLLQENDRVVMVNGTPMEDVLHSFAVQQLRKSGKIAAIVVKRPRKVQLAPPQGSLPVDEDDRAFEVMDEFDGRSARSGYSERSRRSSHGGRSRSWEDSPERGRPHERAWSQERERSRGRSLERGLDHDDDYRRPRERSRGRSLERGLDHDDDYGRPGERSHGMSTDRGYDRGYDRGYDRGYDRTYSPEAEYGRRTQPDARHAGSRSRSREHLRSRSPSPELRGRPDHAGQPDSDRPIGVLLMKSKANEEYGLRLGSQIFIKQMTRTALATKDGNLHEGDIILKINGTVTENMSLTDARKLIEKSRGKLQLVVLRDSKQTLINIPSLNDSDSEIEDISEIESNRSFSPEERRQQYSDYDYHSSNEKLKERPNSREDMQNRWSRMGATPTPFKSMGDIASVVGTENSKEPRYQEEPPAPQPKAAPRTFLRPSPEDEAIYGPNTKMVRFKKGDSVGLRLAGGNDVGIFVAGIQEGTSAEQEGLQEGDQILKVNTQDFRGLVREDAVLYLLEIPKGEMVTILAQSRADVYRDILACGRGDSFFIRSHFECEKETPQSLAFSRGEVFRVVDTLYDGKLGHWLAVRIGNELEKGLIPNKSRAEQMASVQNAQRDNAGDRADFWRMRGQRSGMKKNLRKSREDLTAAVSVSTKFPAYERVLLREAGFKRPVVLFGPIADIALEKLANELPDLFQTAKTEPKDAGSEKSSGVVRLNTVRQIIEQDKHALLDVTPKAVDLLNYTQWFPIVIFFNPDSRQGVKTMRQRLNPTSNKSSRKLYDQANKLKKTCAHLFTATINLNSANDSWFGSLKDTIQHQQGEAVWVSEGKMEGMDDDPEDRMSYLTAMGADYLSCDSRLISDFEDTDGEGGAYTDNELDEPAEEPLVSSITRSSEPVQHEESIRKPSPEPRAQMRRAASRDQLRDSSPPPAFKPEPPKAKTQNREESFDISRSHDYKSNPSAVAGNEVSGASTRSCPPPIAAKPSFGRSILKPSTPVPSPESEEVGEGSEEQEGAPKSVLGKVKIFEKMDHKARLQRMQELQEAQNARIEIAQKHPDIYAVPIKTHKPDPGLSQHTSSRPPEPQKGPSRLYQDPRGSYGSDAEEEEYRQQLSEHSKRGYYSQPSRYRDTEL
Regarding B4, the binding entry is “binds”.

These data come from doi:10.1101/2022.12.16.520750.
